Record: PubChem BioAssay AID1159578 (Peter MacCallum Cancer Centre, 2015)

- Assay: 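siRNA pools altering how lymphatic endothelial cells close a scratch wound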 (primary screen)
- System: human lymphatic endothelial cells
- Reagents: siRNA pool against human genes, 40 nM
- Timing: 48 h after transfection
- Detection: 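High-content imaging of dye-stained cells in a scratch assay measures filled wound area and nuclei per well; duplicate means given as ratio to mock and robust z-score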
- Scale: migration robust z-score: higher = faster migration into the scratch; nuclei per well: higher = more cells in the well
- Rule for the call: 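Pools averaging fewer than 3300 nuclei are never called; remaining pools count as changed when migration robust z lies outside -2 to 2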
- Meaning of the calls: active = migration changed; inactive = no migration change, or too few cells
In all, the deposit lists about 18,000 reagents; shown is a part drawn at random. In the full data, about 1,030 (5.7%) are marked active. 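Inactive calls also include pools with fewer than 3300 nuclei, whose migration was not assessed.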 The raw values are shown without normalisation. Further read-outs or replicates are left out here. Reagent sequences are not shown.

ITIH6 | migration robust z-score: 0.64; nuclei per well, duplicate mean: 6266; activity call: inactive
SKA3 | migration robust z-score: 2.17; nuclei per well, duplicate mean: 4048; activity call: active
NMT2 | migration robust z-score: -1.25; nuclei per well, duplicate mean: 6628; activity call: inactive
BBS1 | migration robust z-score: -0.57; nuclei per well, duplicate mean: 5917; activity call: inactive
FGF13 | migration robust z-score: -0.68; nuclei per well, duplicate mean: 5258; activity call: inactive
GOLGA8A | migration robust z-score: 1.66; nuclei per well, duplicate mean: 6702; activity call: inactive
CAB39 | migration robust z-score: 0.14; nuclei per well, duplicate mean: 5270; activity call: inactive
DOCK6 | migration robust z-score: -0.54; nuclei per well, duplicate mean: 5492; activity call: inactive
PCID2 | migration robust z-score: -0.02; nuclei per well, duplicate mean: 6632; activity call: inactive
TRAF5 | migration robust z-score: 1.25; nuclei per well, duplicate mean: 6478; activity call: inactive
STXBP2 | migration robust z-score: 0.94; nuclei per well, duplicate mean: 5720; activity call: inactive
PEX5L | migration robust z-score: -1.42; nuclei per well, duplicate mean: 3814; activity call: inactive
MGAT5B | migration robust z-score: 0.39; nuclei per well, duplicate mean: 5273; activity call: inactive
ZFP14 | migration robust z-score: 0.12; nuclei per well, duplicate mean: 5366; activity call: inactive
ACAA2 | migration robust z-score: -1.5; nuclei per well, duplicate mean: 6187; activity call: inactive
NXN | migration robust z-score: 1.48; nuclei per well, duplicate mean: 5428; activity call: inactive
RBMS2 | migration robust z-score: -0.6; nuclei per well, duplicate mean: 5347; activity call: inactive
PRKX | migration robust z-score: 0.08; nuclei per well, duplicate mean: 4920; activity call: inactive
OR10H3 | migration robust z-score: 0.06; nuclei per well, duplicate mean: 6186; activity call: inactive
PHF7 | migration robust z-score: -0.08; nuclei per well, duplicate mean: 5143; activity call: inactive
ZDHHC9 | migration robust z-score: 1.04; nuclei per well, duplicate mean: 5512; activity call: inactive
TMEM267 | migration robust z-score: 0.03; nuclei per well, duplicate mean: 6466; activity call: inactive
TSEN34 | migration robust z-score: -0.96; nuclei per well, duplicate mean: 3950; activity call: inactive
FLAD1 | migration robust z-score: 0.44; nuclei per well, duplicate mean: 4591; activity call: inactive
UBE2F | migration robust z-score: -0.93; nuclei per well, duplicate mean: 2891; activity call: inactive
ALX4 | migration robust z-score: 1.25; nuclei per well, duplicate mean: 5852; activity call: inactive
HEPACAM | migration robust z-score: 1.19; nuclei per well, duplicate mean: 5386; activity call: inactive

Just “migration robust z-score” (2 entries from above):
SKA3: 2.17
NMT2: -1.25
